Test results published in article PMC9643518.
No constants are given. Whether binding was seen depends on the method and setting. Binding seen in cells or lysates may run through a third protein. Some entries that bind do so weakly or less than the wild type.

Protein sequences, listed by entry. Tags and fused reporters are not part of them. Residues count along the entry.
UniProt P09055, residues 21-798: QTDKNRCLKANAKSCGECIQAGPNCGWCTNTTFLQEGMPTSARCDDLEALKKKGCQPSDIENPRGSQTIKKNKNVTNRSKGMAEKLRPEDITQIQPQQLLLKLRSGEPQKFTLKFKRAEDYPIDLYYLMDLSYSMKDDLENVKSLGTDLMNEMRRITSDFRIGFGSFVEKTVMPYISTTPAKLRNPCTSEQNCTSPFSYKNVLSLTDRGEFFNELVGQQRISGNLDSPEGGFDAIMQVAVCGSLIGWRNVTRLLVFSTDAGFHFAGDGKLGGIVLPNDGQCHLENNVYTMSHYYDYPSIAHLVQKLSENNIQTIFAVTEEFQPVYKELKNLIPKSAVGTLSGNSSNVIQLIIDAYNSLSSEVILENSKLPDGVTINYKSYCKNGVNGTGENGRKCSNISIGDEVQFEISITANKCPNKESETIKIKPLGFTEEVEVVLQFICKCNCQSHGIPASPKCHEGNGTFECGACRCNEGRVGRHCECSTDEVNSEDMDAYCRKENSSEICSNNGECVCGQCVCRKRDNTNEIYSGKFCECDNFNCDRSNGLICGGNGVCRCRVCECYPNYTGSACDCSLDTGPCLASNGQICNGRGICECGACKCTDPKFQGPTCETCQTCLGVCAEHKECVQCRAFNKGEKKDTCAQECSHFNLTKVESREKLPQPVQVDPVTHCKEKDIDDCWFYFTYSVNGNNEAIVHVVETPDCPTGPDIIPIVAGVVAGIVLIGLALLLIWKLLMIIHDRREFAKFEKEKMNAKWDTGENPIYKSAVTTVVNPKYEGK

B1: integrin α11 (receptor, UniProt P61622 23-1188)
chain: FNMDTRNPRVIAGPSAAFFGYTVQQHDISGKKWLVVGAPMETNGHQKTGDVYKCPVTQGNCTKLNLGRVTLSNVSERKDNMRLGLSLATNPKDNSFLACSPLWSHECGSSYYTTGMCSRANSNFRFSKTVAPALQRCQTYMDIVIVLDGSNSIYPWVEVQHFLINILKKFYIGPGQIQVGIVQYGEDAVHEFHLNDYRSVKDVVEAASHIEQRGGTETRTAFGIEFARSEAFQKGGRKGAKKVMIVITDGESHDSPDLEKVIRQSEKDNVTRYAVAVLGYYNRRGINPETFLNEIKYIASDPDDKHFFNVTDEAALKDIVDALGDRIFSLEGTNKNETSFGLEMSQTGFSSHVVEDGILLGAVGAYDWNGAVLKETSAGKVIPHRESYLKEFPEELKNHAAYLGYTVTSVVSSRQGRVYVAGAPRFNHTGKVILFSMHNNRSLTIHQALRGEQIGSYFGSEITSVDVNDDRVTDVLLVGAPMYFSEGRERGKVYVYNLRQNRFVYNGTLKDSHSYQNARFGSCIASVQDLNQDSYNDVVVGAPLEDSHRGAIYIFHGFQTNILKKPMQRITASELAPGLQHFGCSIHGQLDLNEDGLVDLAVGALGNAVVLWARPVVQINASLHFEPSKINIFHKDCKRNGRDATCLAAFLCFIPIFLAPHFQTATVGIRYNATMDERRYMPRAHLDEGGDQFTNRAVLLSSGQEHCQRINFHVLDTADYVKPVAFSVEYSLEDPDNGPMLDNGWPTTLRVSVPFWNGCNEDEHCVPDLVLDARSDLPTAMEYCQRVLGRPAQDCSSYTLSFDTTVFIIESTRRRVAVEATLENRGENAYSAVLNISQSENLQFASLIQKDDSDNSIECVNEERRLHKKVCNVSYPFFRAKAKVAFRLDFEFSKSVFLHHLQIHLGAGSDSHEQDSTADDNTALLRFHLKYEADVLFTRSSSLSHFEVKANSSLESYDGIGPPFNCVFKVQNLGFFPIHGVMMKITVPIATRGGNRLLMLRDFFTDQGNTSCNIWGNSTEYRSTPTEEDLSHAPQRNHSNSDVVSIICNLRLAPSQETSFYLVGNLWLTSLKALKYRSLKITVNAALQRQFHSPFIFREEDPSRQVTFEISKQEDWQVPIWIIVGSTLGGLLLLALLVLALWKLGFFKSAKRKREPGLGPIPKELK
B2: transmembrane muscle-specific kinase (MuSK) (receptor, UniProt Q61006 22-868)
chain: EKLPKAPVITTPLETVDALVEEVATFMCAVESYPQPEISWTRNKILIKLFDTRYSIRENGQLLTILSVEDSDDGIYCCIANNGVGGAVESCGALQVKMKPKITRPPINVKIIEGLKAVLPCTTMGNPKPSVSWIKGDNALRENSRIAVLESGSLRIHNVQKEDAGQYRCVAKNSLGTAYSKLVKLEVEVFARILRAPESHNVTFGSFVTLRCTAIGIPVPTISWIENGNAVSSGSIQESVKDRVIDSRLQLFITKPGLYTCIATNKHGEKFSTAKAAATVSIAEWSKSQKDSQGYCAQYRGEVCDAVLAKDALVFFNTSYRDPEDAQELLIHTAWNELKAVSPLCRPAAEALLCNHLFQECSPGVVPTPMPICREYCLAVKELFCAKEWQAMEGKAHRGLYRSGMHLLPVPECSKLPSMHRDPTACTRLPYLDYKKENITTFPSITSSRPSADIPNLPASTSSFAVSPAYSMTVIISIVSSFALFALLTIATLYCCRRRKEWKNKKRESTAVTLTTLPSELLLDRLHPNPMYQRMPLLLNPKLLSLEYPRNNIEYVRDIGEGAFGRVFQARAPGLLPYEPFTMVAVKMLKEEASADMQADFQREAALMAEFDNPNIVKLLGVCAVGKPMCLLFEYMAYGDLNEFLRSMSPHTVCSLSHSDLSTRARVSSPGPPPLSCAEQLCIARQVAAGMAYLSERKFVHRDLATRNCLVGETMVVKIADFGLSRNIYSADYYKADGNDAIPIRWMPPESIFYNRYTTESDVWAYGVVLWEIFSYGLQPYYGMAHEEVIYYVRDGNILACPENCPLELYNLMRLCWSKLPADRPSFCSIHRILQRMCERAEGTVGV
B3: dynamin2 (Dyn2) (protein, UniProt P39054 1-870)
chain: MGNRGMEELIPLVNKLQDAFSSIGQSCHLDLPQIAVVGGQSAGKSSVLENFVGRDFLPRGSGIVTRRPLILQLIFSKTEYAEFLHCKSKKFTDFDEVRQEIEAETDRVTGTNKGISPVPINLRVYSPHVLNLTLIDLPGITKVPVGDQPPDIEYQIKDMILQFISRESSLILAVTPANMDLANSDALKLAKEVDPQGLRTIGVITKLDLMDEGTDARDVLENKLLPLRRGYIGVVNRSQKDIEGKKDIRAALAAERKFFLSHPAYRHMADRMGTPHLQKTLNQQLTNHIRESLPTLRSKLQSQLLSLEKEVEEYKNFRPDDPTRKTKALLQMVQQFGVDFEKRIEGSGDQVDTLELSGGARINRIFHERFPFELVKMEFDEKDLRREISYAIKNIHGVRTGLFTPDLAFEAIVKKQVVKLKEPCLKCVDLVIQELISTVRQCTSKLSSYPRLREETERIVTTYIREREGRTKDQILLLIDIEQSYINTNHEDFIGFANAQQRSTQLNKKRAIPNQGEILVIRRGWLTINNISLMKGGSKEYWFVLTAESLSWYKDEEEKEKKYMLPLDNLKIRDVEKGFMSNKHVFAIFNTEQRNVYKDLRQIELACDSQEDVDSWKASFLRAGVYPEKDQAENEDGAQENTFSMDPQLERQVETIRNLVDSYVAIINKSIRDLMPKTIMHLMINNTKAFIHHELLAYLYSSADQSSLMEESAEQAQRRDDMLRMYHALKEALNIIGDISTSTVSTPVPPPVDDTWLQNTSGHSPTPQRRPVSSVHPPGRPPAVRGPTPGPPLIPMPVGATSSFSAPPIPSRPGPQSVFANNDPFSAPPQIPSRPARIPPGIPPGVPSRRAPAAPSRPTIIRPAEPSLLD

The binders below were run against integrin-beta-1 (mouse (endogenous in C2C12)) (UniProt P09055) (assay: proximity ligation; in situ PLA (DuolinkII, mouse-PLUS and rabbit-MINUS probes, detection reagent Orange) on fixed and permeabilized C2C12 myotubes, endogenous proteins; myotubes treated overnight with DMSO or flunarizine (4 μM); proximity < 40 nm).

binding, binds:
B1
B2
B3
